Here are results for 24 compounds from PubChem BioAssay AID328 (DTP/NCI, 2004).

The test system of this assay is BDF1 mice, P388 leukemia ip, median survival T/C. Briefly: NCI In Vivo Anticancer Drug Screen. Data for tumor model P388 Leukemia (intraperitoneal) in B6D2F1 (BDF1) mice. The settings on record: T/C endpoint: median survival time, higher T/C = longer survival. The essentials: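 T/C = treated-group survival ÷ vehicle-control survival; tumour transplanted into mice before dosing.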

The mark [1] stands for this setting: dose: 100.0 mg/kg/injection, schedule: Q01DX009 (ip), vehicle: saline with Tween-80.
The mark [2] stands for this setting: dose: 400.0 mg/kg/injection, schedule: Q01DX009 (ip), vehicle: Klucel (hydroxypropylcellulose) (HPC).
Setting [3] is: dose: 100.0 mg/kg/injection, schedule: Q01DX009 (ip), vehicle: Klucel (hydroxypropylcellulose) (HPC).
The mark [4] stands for this setting: dose: 400.0 mg/kg/injection, schedule: Q04DX003 (ip), vehicle: saline with Tween-80.
[5] abbreviates: dose: 200.0 mg/kg/injection, schedule: Q04DX003 (ip), vehicle: saline with Tween-80.
Where [6] appears, read: dose: 200.0 mg/kg/injection, schedule: Q04DX003 (ip), vehicle: saline.
[7] abbreviates: dose: 200.0 mg/kg/injection, schedule: Q01DX009 (ip), vehicle: Klucel (hydroxypropylcellulose) (HPC).

Molecules are shown by their SMILES. The list does not hold the whole screen: it is rich in T/C values a quarter to a half above the control, in often repeated tests (any T/C) and in doses without a T/C. Other doses and runs of a compound stand elsewhere. T/C: endpoint of the treated group in % of that of the vehicle group. Some entries give survivors of the animals treated and no T/C: the source holds a T/C of zero for them, seemingly a mark for toxic or unscored doses. Some doses without a T/C left all or most animals alive at the check, yet need not have been tolerated: survival well below the control is almost never listed, so the zero probably covers shortened survival too. Survivors were counted at the toxicity check, usually on the fifth day, unless a day is given; later deaths do not show. Schedule codes are those of the source, taken here to give the interval after Q, in days (D) or hours (H), and the number of doses after X. Where survival is the endpoint, this PubChem deposit counts one and a half times the control or more as active, and values a quarter to a half above the control carry no call in these data; other NCI protocols may use other cut-offs. Some T/C values are followed by the survivors on the day toxicity was checked, most often the fifth; where none is given, no animal had died by that day.

As to `CCCCCN(C)/N=N/c1nc[nH]c1C(N)=O`, the T/C under setting [1] was 125 % of control. The survivor count is, setting by setting: (dose: 400.0 mg/kg/injection, schedule: Q01DX009 (ip), vehicle: saline with Tween-80) 5 of 6; (dose: 600.0 mg/kg/injection, schedule: Q04DX003 (ip), vehicle: Klucel (hydroxypropylcellulose) (HPC)) 5 of 6.

`O=[N+]([O-])c1ccc(N=N/C(Cc2ccccc2)=N\Nc2ccccc2)cc1`: under setting [2], the survivor count is on record as 5 of 6.

With `C1=NOC2c3ccc4ccccc4c3CCC12` (stereo not drawn), where the note is “dose: 100.0 mg/kg/injection, schedule: Q04DX003 (ip), vehicle: Klucel (hydroxypropylcellulose) (HPC)”, the survivor count is given as 6 of 6.

For `c1ccc2sc(SNC3CCCCC3)nc2c1`, under “dose: 100.0 mg/kg/injection, schedule: Q04DX002 (ip), vehicle: saline”, the T/C was 125 % of control.

Regarding `CSc1ssc(=Nc2ccc(C)cc2)c1-c1ccccc1`, the survivor count under setting [3] is given as 6 of 6.

On to `CN(C)c1ccc(/C=C/c2ccnc3ccccc23)cc1`, for which the survivor count reads like this: (dose: 70.0 mg/kg/injection, schedule: Q01DX010 (ip), vehicle: saline) 6 of 6; (dose: 140.0 mg/kg/injection, schedule: Q01DX010 (ip), vehicle: saline) 6 of 6.

Turning to `C[C@]12CC[C@H](O)CC1=CC[C@@H]1[C@@H]2CC[C@]2(C)c3nc4ccccc4cc3C[C@@H]12`, the survivor count by setting is: (dose: 100.0 mg/kg/injection, schedule: Q04DX003 (ip), vehicle: saline with Tween-80) 6 of 6; under setting [4], 6 of 6.

`Nc1nc(=S)c2ncn(C3OC(CO)C(O)C3O)c2[nH]1` (stereo not drawn): the T/C by setting is: (dose: 1.0 mg/kg/injection, schedule: Q01DX010 (ip), vehicle: saline) 131 % of control; (dose: 2.0 mg/kg/injection, schedule: Q01DX010 (ip), vehicle: saline) 131 % of control; (dose: 100.0 mg/kg/injection, schedule: Q01DX009 (ip), vehicle: saline) 128 % of control; (dose: 100.0 mg/kg/injection, schedule: Q04DX003 (ip), vehicle: saline) 136 % of control; under setting [5], 140 % of control; under setting [6], 136 % of control. Where the note is “dose: 400.0 mg/kg/injection, schedule: Q04DX003 (ip), vehicle: saline”, the T/C was 131 % of control.

For the compound `CC1(C)CC(C)(c2ccccc2)c2ccccc21` (stereo not drawn), under setting [7], the T/C was 130 % of control and the survivor count is 6 of 6. For the same compound, under setting [2], the survivor count is 6 of 6.

Turning to `CC1(C)SC2C(NC(=O)Cc3ccccc3)C(=O)N2C1C(=O)O` (stereo not drawn), the survivor count (dose: 200.0 mg/kg/injection, schedule: Q01DX009 (ip), vehicle: saline) is 3 of 3.

In the case of `Cc1n[nH]c2ccc([N+](=O)[O-])cc2c1=O`, the survivor count runs as follows: (dose: 50.0 mg/kg/injection, schedule: Q01DX009 (ip), vehicle: saline with Tween-80) 6 of 6; under setting [1], 6 of 6.

As to `COC(=O)C(N)CN` (stereo not drawn), the survivor count was 7 of 7 (dose: 87.5 mg/kg/injection, schedule: Q01DX009 (ip), vehicle: saline with Tween-80) and 5 of 7 (dose: 350.0 mg/kg/injection, schedule: Q01DX009 (ip), vehicle: saline with Tween-80).

On to `C/C(=N/S(=O)(=O)c1ccc(C)cc1)OCCN(C)C`, for which the survivor count (dose: 12.0 mg/kg/injection, schedule: Q04DX003 (ip), vehicle: saline with Tween-80) is 3 of 6.

On to `CCCCCCCCCCCCCCCCCCOC(=O)Cc1ccc(N(CCCl)CCCl)cc1`, for which the T/C was 142 % of control (dose: 44.0 mg/kg/injection, schedule: Q01DX007 (ip), vehicle: Klucel (hydroxypropylcellulose) (HPC)); 138 % of control under setting [7]; 142 % of control (dose: 200.0 mg/kg/injection, schedule: Q04DX002 (ip), vehicle: Klucel (hydroxypropylcellulose) (HPC)); 129 % of control [5 of 6 alive] (dose: 266.0 mg/kg/injection, schedule: Q04DX003 (ip), vehicle: Klucel (hydroxypropylcellulose) (HPC)); 141 % of control (dose: 266.0 mg/kg/injection, schedule: Q04DX003 (ip), vehicle: saline with Tween-80).

On to `Cc1cc(N(C)C)c2ccc3c(ccc4c(N(C)C)cc(C)nc43)c2n1`, for which the survivor count (dose: 200.0 mg/kg/injection, schedule: Q01DX009 (ip), vehicle: saline with Tween-80) was 0 of 6.

`Brc1ccc(Oc2ccccc2)cc1`: the T/C was 127 % of control under setting [5] and 145 % of control under setting [4].

Consider `O=c1c2ccccc2nnn1Cc1ccco1`, for which, under “dose: 100.0 mg/kg/injection, schedule: Q01DX005 (ip), vehicle: saline with Tween-80”, the survivor count is 5 of 5.

With `C=C(C)[C@H]1Cc2c(ccc3c2O[C@@H]2COc4cc(OC)c(OC)cc4[C@@H]2C3=O)O1`, the T/C reads like this: (dose: 8.0 mg/kg/injection, schedule: Q01DX010 (ip), vehicle: saline) 127 % of control; (dose: 16.0 mg/kg/injection, schedule: Q01DX010 (ip), vehicle: saline) 136 % of control. Moreover, the survivor count runs as follows: (dose: 32.0 mg/kg/injection, schedule: Q01DX010 (ip), vehicle: saline) 6 of 6; (dose: 100.0 mg/kg/injection, schedule: Q01DX001 (ip), vehicle: saline with Tween-80) 3 of 6; (dose: 200.0 mg/kg/injection, schedule: Q01DX001 (ip), vehicle: saline with Tween-80) 0 of 6; (dose: 400.0 mg/kg/injection, schedule: Q01DX001 (ip), vehicle: saline with Tween-80) 0 of 6.

Take `CC1CCCCN1CCCO` (stereo not drawn): under setting [6], the survivor count is reported as 2 of 6.

Turning to `O=C(CCCc1ccc(N(CCCl)CCCl)cc1)Nc1ncccn1`, the T/C (dose: 5.0 mg/kg/injection, schedule: Q01DX009 (ip), vehicle: Klucel (hydroxypropylcellulose) (HPC)) is 126 % of control [5 of 6 alive]; the T/C (dose: 12.0 mg/kg/injection, schedule: Q01DX009 (ip), vehicle: Klucel (hydroxypropylcellulose) (HPC)) was 128 % of control; the T/C (dose: 12.5 mg/kg/injection, schedule: Q01DX009 (ip), vehicle: Klucel (hydroxypropylcellulose) (HPC)) is 138 % of control. The survivor count (dose: 50.0 mg/kg/injection, schedule: Q01DX009 (ip), vehicle: Klucel (hydroxypropylcellulose) (HPC)) is listed as 0 of 6.

As to `CCCC(C1=CC(C)(C)c2ccccc2C1=O)c1ccc(Br)cc1` (stereo not drawn), the T/C is 125 % of control under setting [3] and 135 % of control under setting [2].

Take `C/C=C1\CN(C)[C@H]2Cc3c([nH]c4ccccc34)[C@@H](c3cc4[nH]c5c(c4cc3OC)CCN3C[C@H]4C[C@H](CC)[C@H]3[C@@]5(C(=O)OC)C4)C[C@H]1C2C(=O)OC` (stereo partly drawn): the survivor count (dose: 15.0 mg/kg/injection, schedule: Q01DX010 (ip), vehicle: water) is 5 of 6; the survivor count (dose: 20.0 mg/kg/injection, schedule: Q01DX010 (ip), vehicle: water) is given as 1 of 6; the survivor count (dose: 40.0 mg/kg/injection, schedule: Q01DX010 (ip), vehicle: water) was 6 of 6; the survivor count (dose: 60.0 mg/kg/injection, schedule: Q01DX010 (ip), vehicle: water) is recorded as 1 of 6.

For the compound `[N-]=[N+]=NCC(=O)NCc1cnccn1`, the T/C (dose: 50.0 mg/kg/injection, schedule: Q01DX009 (ip), vehicle: saline) was 126 % of control.

With `COC12CC(=O)C(C(C)=O)=C(O)C1(C)c1c(OC(C)=O)c(C)c(O)c(C(C)=O)c1O2` (stereo not drawn), the T/C is, setting by setting: (dose: 12.5 mg/kg/injection, schedule: Q01DX009 (ip), vehicle: gum acacia) 133 % of control [4 of 6 alive]; (dose: 25.0 mg/kg/injection, schedule: Q01DX009 (ip), vehicle: gum acacia) 132 % of control [5 of 6 alive]. The survivor count by setting is: (dose: 50.0 mg/kg/injection, schedule: Q01DX009 (ip), vehicle: gum acacia) 5 of 6; (dose: 100.0 mg/kg/injection, schedule: Q01DX009 (ip), vehicle: gum acacia) 1 of 6.
